# ± gives the uncertainty stated by the source. Many entries were measured with a wide error.
# Assay: self-splicing fitness, log relative to wild type (ln ratio); higher = more splicing; Tetrahymena group I intron in knt gene, E. coli kanamycin selection, DiMSum; sequences stand for … in CUCUCU…GGAGGGAAAAGUUAUCAGGCAUGCACCUGGUAGCUAGUCUUUAAACCAAUAGAUUGCAUCGGUUUAAAAGGCAAGACCGUCAAAUUGCGGGAAAGGGGUCAACAGCCGUUCAGUACCAAGUCUCAGGGGAAACUUUGAGAUGGCCUUGCAAAGGGUAUGGUAAUAAGCUGACGGACAUGGUCCUAACCACGCAGCCAAGUCCUAAGUCAACAGAUCUUCUGUUGAUAUGGAUGCAGUUCACAGACUAAAUGUCGGUCGGGGAAGAUGUAUUCUUCUCAUAAGAUAUAGUCGGACCUCUCCUUAAUGGGAGCUAGCGGAUGAAGUGAUGCAACACUGGAGCCGCUGGGAACUAAUUUGUAUGCGAAAGUAUAUUGAUUAGUUUUGGAGUACUCGUGGUCG
# How it was run: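 Six replicate transformations of E. coli BL21(DE3) with a pET-22b(+) library were grown overnight at 37°C or 30°C. The library randomised all eight P1ex-region intron nucleotides, the intron lying in the knt kanamycin-resistance gene, and plates were LB agar with or without 25 μg/mL kanamycin plus 100 μg/mL carbenicillin, 50 μM IPTG and 0.2% rhamnose. Pooled colonies were amplicon-sequenced on an Illumina HiSeq 2500, and fitness is the DiMSum error-weighted combination of wild-type-normalised replicate fold changes, kanamycin versus none.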
sequence,measurement,setting,value
UGUAAGCAAUAUUACGAUUC,self-splicing fitness (ln),30 °C,-3.16 ± 0.54
UAUUAGCAAUAUUACGCCUC,self-splicing fitness (ln),30 °C,-3.46 ± 1.1
GUUGAGCAAUAUUACGGCCA,self-splicing fitness (ln),30 °C,-3.87 ± 0.73
CGGGAGCAAUAUUACGAGAA,self-splicing fitness (ln),30 °C,-2.61 ± 0.63
same,self-splicing fitness (ln),37 °C,-2.82 ± 0.53
GCUGAGCAAUAUUACGGCAG,self-splicing fitness (ln),30 °C,-3.48 ± 1.1
CGCGAGCAAUAUUACGUUCC,self-splicing fitness (ln),37 °C,-3.64 ± 1
CCGCAGCAAUAUUACGAACU,self-splicing fitness (ln),37 °C,-2.74 ± 0.61
GCGUAGCAAUAUUACGCUGA,self-splicing fitness (ln),30 °C,-4.25 ± 0.62
UAUCAGCAAUAUUACGAAAC,self-splicing fitness (ln),30 °C,-2.93 ± 1.1
GAUAAGCAAUAUUACGCAGA,self-splicing fitness (ln),30 °C,-2.42 ± 1.2
CGGGAGCAAUAUUACGUAAU,self-splicing fitness (ln),30 °C,-4.85 ± 0.52
GGGGAGCAAUAUUACGACCG,self-splicing fitness (ln),37 °C,-0.046 ± 0.9
AAUGAGCAAUAUUACGACGC,self-splicing fitness (ln),30 °C,-2.08 ± 0.57
same,self-splicing fitness (ln),37 °C,0.309 ± 0.84
CGAGAGCAAUAUUACGCUAU,self-splicing fitness (ln),30 °C,-3.12 ± 0.51
same,self-splicing fitness (ln),37 °C,-0.693 ± 0.58
UUAUAGCAAUAUUACGCGUC,self-splicing fitness (ln),30 °C,-3.63 ± 1
CGCCAGCAAUAUUACGGACC,self-splicing fitness (ln),30 °C,-1.3 ± 0.15
same,self-splicing fitness (ln),37 °C,-0.361 ± 0.18
GGCUAGCAAUAUUACGAAAC,self-splicing fitness (ln),30 °C,0.467 ± 0.5
CUGUAGCAAUAUUACGCGUU,self-splicing fitness (ln),30 °C,-4.19 ± 0.3
same,self-splicing fitness (ln),37 °C,-2.26 ± 0.18
AGCGAGCAAUAUUACGCAUA,self-splicing fitness (ln),30 °C,-2.86 ± 0.61
CGGUAGCAAUAUUACGCUCG,self-splicing fitness (ln),30 °C,-2.26 ± 0.9
CUGGAGCAAUAUUACGCUAG,self-splicing fitness (ln),30 °C,-5.51 ± 0.58
UCGAAGCAAUAUUACGGAGC,self-splicing fitness (ln),30 °C,-3.27 ± 0.74
GCCGAGCAAUAUUACGCUCC,self-splicing fitness (ln),37 °C,-0.147 ± 0.68
UCUGAGCAAUAUUACGUACG,self-splicing fitness (ln),30 °C,-2.21 ± 0.79
UGGAAGCAAUAUUACGCCUU,self-splicing fitness (ln),37 °C,-1.76 ± 0.53
UUUUAGCAAUAUUACGUCAC,self-splicing fitness (ln),37 °C,-2.65 ± 0.65
AAGGAGCAAUAUUACGAAAG,self-splicing fitness (ln),37 °C,-3.21 ± 0.6
CAGAAGCAAUAUUACGAUUC,self-splicing fitness (ln),30 °C,-4.53 ± 0.52
same,self-splicing fitness (ln),37 °C,-1.98 ± 0.18
CUGCAGCAAUAUUACGCCGA,self-splicing fitness (ln),30 °C,-4.48 ± 0.59
AAGUAGCAAUAUUACGAAGC,self-splicing fitness (ln),30 °C,-1.04 ± 0.67
same,self-splicing fitness (ln),37 °C,-2.66 ± 0.75
GCAAAGCAAUAUUACGAUUC,self-splicing fitness (ln),30 °C,-1.26 ± 0.082
same,self-splicing fitness (ln),37 °C,-0.245 ± 0.1
ACGUAGCAAUAUUACGCUAC,self-splicing fitness (ln),30 °C,-0.689 ± 0.64
same,self-splicing fitness (ln),37 °C,-1.79 ± 1.2
GACCAGCAAUAUUACGUCCA,self-splicing fitness (ln),30 °C,-1.75 ± 0.095
same,self-splicing fitness (ln),37 °C,-0.749 ± 0.095
AAGGAGCAAUAUUACGACAG,self-splicing fitness (ln),30 °C,-3.83 ± 1
same,self-splicing fitness (ln),37 °C,-3.61 ± 1

# Another view of part of the listing above:
sequence | measurement | setting | value
GUUGAGCAAUAUUACGGCCA | self-splicing fitness (ln) | 30 °C | -3.87 ± 0.73
UCGAAGCAAUAUUACGGAGC | self-splicing fitness (ln) | 30 °C | -3.27 ± 0.74

# Reference: the supplement of paper PMC7877785
